PubChem BioAssay AID662 (National Center for Advancing Translational Sciences (NCATS), 2007)
Some of the results follow. Shown are side measurements of this screen, not its main read-out; they come without a call. Most of these compounds were active or inconclusive in the main read-out, so they are no random draw. Words in brackets tell the shape of the fitted curve; partial curves, single points and poor fits give uncertain potencies.

assay: Cell signaling CRE-BLA (Fsk stim); details: CHO CRE-bla reporter (cAMP response element driving beta-lactamase), forskolin EC10, beta-lactamase ratio; measured here: 460 nm blue channel
In short: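 CHO CRE-bla cells, overnight plating in Opti-MEM with 0.5% dialyzed FBS; cpd titration + EC10 NKH 477, 3 h 37 °C; CCF4 2 h RT; ex 405/em 460 vs 530 ratio → %Activity, AC50.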

SMILES	AC50
C/C(=N\O)C(=O)NCc1ccncc1	25.1 µM [falling, single point]
Cc1ccc(N=c2oc3cc(O)ccc3cc2C(N)=O)cc1	12.6 µM [rising, partial curve]
Cc1c(C(=O)N2CCN(c3ccc(C(F)(F)F)cn3)CC2)oc2ccccc12	0.0794 µM [falling, full curve]
CC1CC(C)CN(c2ncnc3c2cnn3Cc2ccc(Cl)cc2)C1 (configuration not stated)	10 µM [rising, single point]
Cc1nc(C)c(C(=O)NCc2ccccc2Cl)o1	5.01 µM [falling, single point]
CC1CCCN(Cc2nc3c(c(=O)n(C)c(=O)n3C)n2CC(=O)c2ccccc2)C1 (configuration not stated)	12.6 µM [rising, single point]
COc1cccc(C2CC(=O)Nc3cc4c(cc32)OCCO4)c1OC(C)C (configuration not stated)	12.6 µM [rising, single point]
CCCCC[C@H](O)C=C[C@H]1[C@H](O)CC(=O)[C@H]1CCCCCCC(=O)O	0.02 µM [rising, full curve, poor fit]
O=C(O)C1C2CCC(O2)C1C(=O)Nc1cccc(F)c1 (configuration not stated)	10 µM [rising, partial curve]
COC(=O)[C@H](CC(C)C)NC(=O)NC1CCCc2ccccc21 (some centres not stated)	10 µM [falling, partial curve]
COc1cc(C2Nc3ccc4ncccc4c3C3=C2C(=O)CCC3)cc(OC)c1O (configuration not stated)	20 µM [rising, single point]
COc1ccc2c(=O)c(C(=O)NCCc3ccc(OC)c(OC)c3)c[nH]c2c1	10 µM [rising, partial curve]
Cc1nc2sc3c(c2c2nc(-c4ccco4)nn12)CC(C)(C)OC3	10 µM [rising, partial curve]
COCC(=O)Nc1cc(C)c2c(=O)oc3ccccc3c2n1	10 µM [rising, partial curve]
N#Cc1cccc(-c2cc(NCc3cccs3)ncn2)c1	3.16 µM [rising, full curve]
COc1cccc(-n2nnnc2SCC(=O)c2ccc(NC(C)=O)cc2)c1	25.1 µM [falling, single point]
CCc1c(C)nc2ncnn2c1NCCc1ccc(OC)c(OC)c1	25.1 µM [rising, single point]
O=C(On1c(-c2ccccc2)nc2ccccc2c1=O)c1ccco1	10 µM [falling, single point]
CC[C@@H](CS(=O)(=O)O)[N+](=O)[O-]	0.000794 µM [falling, full curve, poor fit]
Cc1nnc(SCC(=O)NCc2ccco2)[nH]c1=O	0.316 µM [falling, full curve]
COc1cc2c(cc1OC)-c1cc(NC3CCCCCCC3)nc(=O)n1CC2	0.631 µM [rising, full curve]
Cc1nn(CCc2nc(-c3ccco3)cs2)c2[nH]c(=O)cc(C(F)(F)F)c12	0.501 µM [rising, partial curve]
N#CCCn1c(=O)c(CCc2ccccc2)nc2cnc(N3CCOCC3)nc21	6.31 µM [rising, partial curve]

SMILES	AC50
COc1ccc(CNc2ncncc2-c2ccc(N(C)C)cc2)c(OC)c1	10 µM [rising, partial curve]
CCOC(=O)CN(C(=O)CSc1nnc2c(n1)[nH]c1ccccc12)c1ccccc1	10 µM [rising, partial curve]
O=c1c2ccccc2nc(SCc2cn3ccsc3n2)n1-c1ccccc1F	1 µM [rising, partial curve]
O=C(CSc1nnc2scc(-c3ccccc3)n12)Nc1ccc2c(c1)OCCO2	0.631 µM [rising, full curve, poor fit]
CNC(=O)c1ccc(-c2sc3nc(N4CCOCC4)c4c(c3c2N)CCCC4)o1	3.16 µM [rising, partial curve]
O=C(c1csnn1)N1CCC2(CC1)CN(c1ccccn1)C2	25.1 µM [rising, single point]
Fc1ccc(-c2noc(C3CCN(Cc4cccnc4)CC3)n2)cc1	0.126 µM [falling, single point]
Cc1c(Cl)cccc1NC(=O)CSc1nnc(CCNC(=O)OC(C)(C)C)o1	3.98 µM [falling, full curve, poor fit]
COc1ccc(-c2cc(C(F)F)n3ncc(C(=O)NCC4CCCO4)c3n2)cc1 (configuration not stated)	5.01 µM [rising, partial curve]
Cc1ccccc1S(=O)(=O)Cc1ccc(C(=O)N2CCN(c3cccc(C)c3C)CC2)o1	12.6 µM [falling, single point]
CCOC(=O)c1c(C)oc(NC(=O)COc2ccc(Cl)cc2C)c1C#N	25.1 µM [rising, single point]
COc1ccc(-c2cc(C(=O)N3CCN(C(c4ccccc4)c4ccccc4)CC3)no2)cc1	25.1 µM [falling, single point]
Cc1noc(C)c1CSc1nnc2scc(-c3ccc(Cl)cc3)n12	10 µM [rising, partial curve]
Cc1cc(C)c(S(=O)(=O)Nc2cccc3nsnc23)c(C)c1	6.31 µM [rising, partial curve]
COc1ccccc1CN1C(=O)[C@@H]2C(CC(N)=O)NC3(C(=O)Nc4c3ccc(Cl)c4C)[C@@H]2C1=O (some centres not stated)	5.01 µM [falling, partial curve]
COc1ccc2cccc(N3CCN(CCNC(=O)c4ccc(F)cc4)CC3)c2c1	25.1 µM [falling, partial curve, poor fit]
O=C1CCCN1CCCNc1ccc(S(=O)(=O)N2CCCCC2)cn1	0.0126 µM [falling, full curve, poor fit]
O=C(Nc1nnc(CC(=O)N2CCOCC2)s1)C1COc2ccccc2O1 (configuration not stated)	12.6 µM [falling, single point]
Cc1nc(NCc2ccco2)c(C#N)c2c1COC(C)(C)C2	0.251 µM [rising, partial curve, poor fit]
C=CCSc1nnc(-c2ccccc2NC(C)=O)c(=O)[nH]1	0.2 µM [falling, full curve]
C=C(C)Cn1c(SCC)nc2ccccc2c1=O	12.6 µM [rising, partial curve]
Cc1cc(NC(=O)CN2CCCCCCC2)no1	0.501 µM [falling, full curve]
CCCCN(CC)CCNC(=O)c1cc2c(=O)n(C)c3ccccc3c2n1C	10 µM [rising, partial curve]

SMILES	AC50
COC(=O)c1ccc(CSc2nc3c(cnn3-c3ccc(C)c(C)c3)c(=O)[nH]2)o1	3.16 µM [rising, partial curve]
COCCn1c(=O)c(-c2cc(F)cc(F)c2)nc2cnc(Oc3ccc(OC)cc3)nc21	12.6 µM [rising, single point]
CCOC(=O)C1CCN(S(=O)(=O)c2cccc(-c3cn4cccc(C)c4n3)c2)CC1	25.1 µM [rising, single point]
COc1ccc(OC)c(NC(=O)c2cn(C)c(=O)c3cc(OC)c(OC)cc23)c1	6.31 µM [rising, partial curve]
FC(F)(F)c1cc(-c2ccc3c(c2)OCO3)nc(NCc2ccco2)n1	12.6 µM [falling, single point]
Cc1nc2cnc(Nc3ccccc3)nc2n(C[C@H]2CCCO2)c1=O	10 µM [rising, partial curve]
CCn1c(SCC(=O)c2ccc(NS(=O)(=O)c3ccccc3)cc2)nnc1-c1cccs1	7.94 µM [falling, partial curve]
O=c1c(-c2ccc(F)cc2)nc2cncnc2n1-c1ccccc1	12.6 µM [rising, partial curve]
Cc1nn(-c2ccccc2)c2c1C1(C(=O)N(C(C)C)c3ccccc31)C(C#N)=C(N)O2 (configuration not stated)	10 µM [falling, partial curve]
O=C(Nc1ccc(Cl)cc1)C1CC2CCCC(C1)C2=O (configuration not stated)	5.01 µM [rising, partial curve]
C=CCc1ccc(OCC(O)CN2CCCCC2C)c(OC)c1 (configuration not stated)	5.01 µM [falling, single point]
CCC1CCCCN1CCCNC(=O)c1ccc(CS(=O)(=O)Cc2ccccc2F)o1 (configuration not stated)	0.1 µM [falling, full curve, poor fit]
CCn1c(SCC(=O)Nc2nc(-c3ccccc3)cs2)nnc1-c1ccccc1O	12.6 µM [falling, partial curve]
C/C(C[n+]1ccccc1)=N\N=C(N)N	0.01 µM [falling, full curve, poor fit]
COC(=O)C1=C(C)NC(C)=C(C(=O)OCCSc2ccccc2)[C@@H]1C	12.6 µM [rising, single point]
CCCc1ccc(OCc2nc(-c3ccc(NC(=O)c4ccco4)cc3)no2)cc1	25.1 µM [rising, single point]
COc1ccc2[nH]cc(CCNc3ccnc(-c4c(C)noc4C)n3)c2c1	15.8 µM [rising, partial curve]
CCn1c(COc2cccc(OC)c2)nnc1SCC(=O)Nc1cc(OC)ccc1OC	5.01 µM [falling, single point]
COc1cc2nc(-c3cccs3)oc(=O)c2cc1OC	3.16 µM [rising, single point]
O=C(Nc1ccc2c(c1)OCO2)[C@@H]1[C@@H]2C(=O)N(C3CCCCC3)C(=O)[C@@H]2C2c3ccccc3C=CN21 (some centres not stated)	10 µM [falling, partial curve]
C=CCn1c(SCC(=O)Nc2cc(C)cc(C)c2)nnc1-c1cnccn1	2.51 µM [rising, partial curve]

Among those listed so far, five contain a thiophene ring, fused or not:
SMILES	AC50
Cc1nc2sc3c(c2c2nc(-c4ccco4)nn12)CC(C)(C)OC3	10 µM [rising, partial curve]
N#Cc1cccc(-c2cc(NCc3cccs3)ncn2)c1	3.16 µM [rising, full curve]
CNC(=O)c1ccc(-c2sc3nc(N4CCOCC4)c4c(c3c2N)CCCC4)o1	3.16 µM [rising, partial curve]
CCn1c(SCC(=O)c2ccc(NS(=O)(=O)c3ccccc3)cc2)nnc1-c1cccs1	7.94 µM [falling, partial curve]
COc1cc2nc(-c3cccs3)oc(=O)c2cc1OC	3.16 µM [rising, single point]
